# Laboratory results: the supplement of paper PMC8728848
# The other results are listed elsewhere or left out.
# Tests used:
# Assay in all cases: glycan array binding signal (z-score within array); higher = stronger binding
# Settings in all cases: glycan notation: IUPAC condensed, linker removed
# Fuc(a1-2)Gal = biological target: Fuc(a1-2)Gal
# Procedure, shortened: (§1)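 Columns mapping to the same glycan were averaged after glycan names were converted to IUPAC-condensed notation. The data come from 3228 arrays in the Consortium for Functional Glycomics database, limited to those with an available protein sequence. Binding is reported as a within-array Z-score averaged across arrays of one protein sequence and across linkers.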
# Fuc(a1-2)Gal(b1-3)GalNAc = biological target: Fuc(a1-2)Gal(b1-3)GalNAc
# Procedure, shortened: as §1
# [1] = biological target: Fuc(a1-2)Gal(b1-3)GalNAc(a1-3)[Fuc(a1-2)]Gal(b1-4)Glc
# Procedure, shortened: as §1
# [2] = biological target: Fuc(a1-2)Gal(b1-3)GalNAc(a1-3)[Fuc(a1-2)]Gal(b1-4)GlcNAc
# Procedure, shortened: as §1
# [3] = biological target: Fuc(a1-2)Gal(b1-3)GalNAc(b1-3)Gal
# Procedure, shortened: as §1
# [4] = biological target: Fuc(a1-2)Gal(b1-3)GalNAc(b1-3)Gal(a1-4)Gal(b1-4)Glc
# Procedure, shortened: as §1
# [5] = biological target: Fuc(a1-2)Gal(b1-3)GalNAc(b1-4)[Neu5Ac(a2-3)]Gal(b1-4)Glc
# Procedure, shortened: as §1
# Fuc(a1-2)Gal(b1-3)GlcNAc = biological target: Fuc(a1-2)Gal(b1-3)GlcNAc
# Procedure, shortened: as §1
# [6] = biological target: Fuc(a1-2)Gal(b1-3)GlcNAc(b1-2)Man(a1-3)[Fuc(a1-2)Gal(b1-3)GlcNAc(b1-2)Man(a1-6)]Man(b1-4)GlcNAc(b1-4)GlcNAc
# Procedure, shortened: as §1
# [7] = biological target: Fuc(a1-2)Gal(b1-3)GlcNAc(b1-2)Man(a1-3)[Fuc(a1-2)Gal(b1-3)GlcNAc(b1-2)Man(a1-6)]Man(b1-4)GlcNAc(b1-4)[Fuc(a1-6)]GlcNAc
# Procedure, shortened: as §1
# [8] = biological target: Fuc(a1-2)Gal(b1-3)GlcNAc(b1-3)Gal(b1-4)Glc
# Procedure, shortened: as §1
# [9] = biological target: Fuc(a1-2)Gal(b1-3)GlcNAc(b1-3)GalNAc
# Procedure, shortened: as §1
# [10] = biological target: Fuc(a1-2)Gal(b1-3)GlcNAc(b1-3)[Fuc(a1-2)Gal(b1-3)GlcNAc(b1-6)]GalNAc
# Procedure, shortened: as §1
# [11] = biological target: Fuc(a1-2)Gal(b1-3)GlcNAc(b1-3)[Gal(b1-4)GlcNAc(b1-6)]Gal(b1-4)Glc
# Procedure, shortened: as §1
# [12] = biological target: Fuc(a1-2)Gal(b1-3)GlcNAc(b1-3)[Neu5Ac(a2-6)Gal(b1-4)GlcNAc(b1-6)]Gal(b1-4)Glc
# Procedure, shortened: as §1
# [13] = biological target: Fuc(a1-2)Gal(b1-3)GlcNAc6S
# Procedure, shortened: as §1
# [14] = biological target: Fuc(a1-2)Gal(b1-3)[Fuc(a1-4)]GlcNAc
# Procedure, shortened: as §1
# [15] = biological target: Fuc(a1-2)Gal(b1-3)[Fuc(a1-4)]GlcNAc(b1-2)Man(a1-3)[Fuc(a1-2)Gal(b1-3)[Fuc(a1-4)]GlcNAc(b1-2)Man(a1-3)]Man(b1-4)GlcNAc(b1-4)GlcNAc
# Procedure, shortened: as §1
# [16] = biological target: Fuc(a1-2)Gal(b1-3)[Fuc(a1-4)]GlcNAc(b1-2)Man(a1-3)[Fuc(a1-2)Gal(b1-3)[Fuc(a1-4)]GlcNAc(b1-2)Man(a1-6)]Man(b1-4)GlcNAc(b1-4)[Fuc(a1-6)]GlcNAc(b1-4)[Fuc(a1-6)]GlcNAc
# Procedure, shortened: as §1
# [17] = biological target: Fuc(a1-2)Gal(b1-3)[Fuc(a1-4)]GlcNAc(b1-3)[Fuc(a1-3)[Gal(b1-4)]GlcNAc(b1-6)]Gal(b1-4)Glc
# Procedure, shortened: as §1
# [18] = biological target: Fuc(a1-2)Gal(b1-3)[Fuc(a1-4)]GlcNAc(b1-3)[Gal(b1-4)GlcNAc(b1-6)]Gal(b1-4)Glc
# Procedure, shortened: as §1
# Fuc(a1-2)Gal(b1-4)Glc = biological target: Fuc(a1-2)Gal(b1-4)Glc
# Procedure, shortened: as §1
# Fuc(a1-2)Gal(b1-4)Glc6S = biological target: Fuc(a1-2)Gal(b1-4)Glc6S
# Procedure, shortened: as §1
# Fuc(a1-2)Gal(b1-4)GlcNAc = biological target: Fuc(a1-2)Gal(b1-4)GlcNAc
# Procedure, shortened: as §1
# [19] = biological target: Fuc(a1-2)Gal(b1-4)GlcNAc(b1-2)Man
# Procedure, shortened: as §1
# [20] = biological target: Fuc(a1-2)Gal(b1-4)GlcNAc(b1-2)Man(a1-3)[Fuc(a1-2)Gal(b1-4)GlcNAc(b1-2)Man(a1-6)]Man(b1-4)GlcNAc(b1-4)GlcNAc
# Procedure, shortened: as §1
# [21] = biological target: Fuc(a1-2)Gal(b1-4)GlcNAc(b1-2)Man(a1-3)[Fuc(a1-2)Gal(b1-4)GlcNAc(b1-2)Man(a1-6)]Man(b1-4)GlcNAc(b1-4)[Fuc(a1-6)]GlcNAc
# Procedure, shortened: as §1
# [22] = biological target: Fuc(a1-2)Gal(b1-4)GlcNAc(b1-2)[Fuc(a1-2)Gal(b1-4)GlcNAc(b1-4)]Man(a1-3)[Fuc(a1-2)Gal(b1-4)GlcNAc(b1-2)Man(a1-6)]Man(b1-4)GlcNAc(b1-4)GlcNAc
# Procedure, shortened: as §1
# [23] = biological target: Fuc(a1-2)Gal(b1-4)GlcNAc(b1-3)Gal(b1-4)GlcNAc
# Procedure, shortened: as §1
# [24] = biological target: Fuc(a1-2)Gal(b1-4)GlcNAc(b1-3)Gal(b1-4)GlcNAc(b1-2)Man(a1-3)[Fuc(a1-2)Gal(b1-4)GlcNAc(b1-3)Gal(b1-4)GlcNAc(b1-2)Man(a1-6)]Man(b1-4)GlcNAc(b1-4)GlcNAc
# Procedure, shortened: as §1
binder,measurement,setting,value
Pwp1 (Candida glabrata) (protein) MGSSHHHHHHSSGLVPRGSHMASANPISITNVCQFPDNWARTAGFQATTVRLGLTIASNTYKELLNYPGLFNFATQKATVTQPNFSISGFPFFTGLYGLTVWPINLLVELQGYFVPPESGNYTFTLQGSDDAAILFFANPSTFACGSQNDWPQPREADITVTDTLVPSRTLYLVKGVAYPIRIAYYNGSGDGKLNVSFKDPSGTTHTDWKGYVWQYSNTCSTCTYT,glycan array binding signal (z-score),Fuc(a1-2)Gal,-0.395
same,glycan array binding signal (z-score),Fuc(a1-2)Gal(b1-3)GalNAc,0.522
same,glycan array binding signal (z-score),[1],0.159
same,glycan array binding signal (z-score),[2],-0.858
same,glycan array binding signal (z-score),[3],0.137
same,glycan array binding signal (z-score),[4],0.24
same,glycan array binding signal (z-score),[5],2.14
same,glycan array binding signal (z-score),Fuc(a1-2)Gal(b1-3)GlcNAc,0.372
same,glycan array binding signal (z-score),[6],-1.87
same,glycan array binding signal (z-score),[7],-0.078
same,glycan array binding signal (z-score),[8],-0.089
same,glycan array binding signal (z-score),[9],0.459
same,glycan array binding signal (z-score),[10],-2.13
same,glycan array binding signal (z-score),[11],-0.944
same,glycan array binding signal (z-score),[12],0.925
same,glycan array binding signal (z-score),[13],0.319
same,glycan array binding signal (z-score),[14],0.731
same,glycan array binding signal (z-score),[15],0.443
same,glycan array binding signal (z-score),[16],0.886
same,glycan array binding signal (z-score),[17],0.622
same,glycan array binding signal (z-score),[18],0.973
same,glycan array binding signal (z-score),Fuc(a1-2)Gal(b1-4)Glc,0.089
same,glycan array binding signal (z-score),Fuc(a1-2)Gal(b1-4)Glc6S,-0.871
same,glycan array binding signal (z-score),Fuc(a1-2)Gal(b1-4)GlcNAc,0.296
same,glycan array binding signal (z-score),[19],0.71
same,glycan array binding signal (z-score),[20],0.122
same,glycan array binding signal (z-score),[21],0.843
same,glycan array binding signal (z-score),[22],0.988
same,glycan array binding signal (z-score),[23],1.09
same,glycan array binding signal (z-score),[24],-1.11

# An excerpt of these results, with tabs.
binder	measurement	setting	value
Pwp1 (Candida glabrata) (protein) MGSSHHHHHHSSGLVPRGSHMASANPISITNVCQFPDNWARTAGFQATTVRLGLTIASNTYKELLNYPGLFNFATQKATVTQPNFSISGFPFFTGLYGLTVWPINLLVELQGYFVPPESGNYTFTLQGSDDAAILFFANPSTFACGSQNDWPQPREADITVTDTLVPSRTLYLVKGVAYPIRIAYYNGSGDGKLNVSFKDPSGTTHTDWKGYVWQYSNTCSTCTYT	glycan array binding signal (z-score)	[20]	0.122
same	glycan array binding signal (z-score)	[24]	-1.11
